Values are relative to the signal before dosing, not to a vehicle control; the signal also falls without drug.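 Fibroblast labels name human fibroblasts: mostly primary ones from tissues such as uterus (C12385, HUF), lung (H6013), bone (Hs27A), adrenal (HADF) and skin (WS1), plus mammary HMF and breast cancer-associated Hs343T. The cancer cells are basal-like or mesenchymal-like triple-negative breast cancer lines. The paper calls a changed response a hit when it shifts by more than 3x the replicate standard deviation. The tissue of the other fibroblasts is not given here.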
System: Hs578T
Experiment: relative JC-1 red fluorescence (viability) vs pre-drug, coculture with fibroblast (fraction); higher = more viable cancer cells
Conditions: 1 µM
Description: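 JC-1 labelled TNBC cells cocultured 1:1 (1,500 cells each) with CellTrace Violet stained primary or stromal fibroblasts in 384-well plates in FluoroBrite medium, treated with one of 42 anticancer drugs at 0.1, 1, 10 or 100 uM. JC-1 red fluorescence (mitochondrial integrity in cancer cells only) was read by plate reader every 8 h for 72 h. Values are normalised to each well's pre-drug value. The stock of one drug was tenfold lower, so its dose labels may be too high.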

CO[C@@]12[C@H](COC(N)=O)C3=C(C(=O)C(C)=C(N)C3=O)N1C[C@@H]1N[C@@H]12 [Mitomycin C]
Conditions	relative JC-1 red fluorescence
8 h	0.895
16 h	0.795
24 h	0.7415
32 h	0.70673
40 h	0.659
48 h	0.618
56 h	0.604
64 h	0.572
72 h	0.557

relative JC-1 red fluorescence
Conditions	8 h	16 h	24 h	32 h	40 h	48 h	56 h	64 h	72 h
coculture fibroblast: C12385	0.77077	0.673	0.612	0.519	0.454	0.418	0.392	0.376	0.365
coculture fibroblast: H6013	0.829	0.78	0.7209	0.671	0.634	0.607	0.56	0.536	0.504
coculture fibroblast: H6019	0.749	0.657	0.625	0.51	0.445	0.4	0.363	0.333	0.308
coculture fibroblast: H6076	0.977	0.885	0.79	0.739	0.669	0.633	0.582	0.541	0.51
coculture fibroblast: H6231	0.911	0.782	0.717	0.663	0.588	0.554	0.514	0.49	0.463
coculture fibroblast: HADF	0.838	0.779	0.71	0.638	0.595	0.564	0.522	0.505	0.469
coculture fibroblast: HCFa	0.799	0.748	0.695	0.6466	0.59439	0.57875	0.549	0.5317	0.4968
coculture fibroblast: HCPF	0.88522	0.771	0.739	0.7	0.642	0.627	0.614	0.574	0.552
coculture fibroblast: HHSteC	0.8315	0.758	0.687	0.637	0.585	0.548	0.517	0.489	0.452
coculture fibroblast: HMF	0.9199	0.831	0.771	0.737	0.685	0.65	0.624	0.588	0.568
coculture fibroblast: HPFa	0.894	0.79	0.734	0.68	0.645	0.619	0.577	0.558	0.519
coculture fibroblast: HUF	0.846	0.686	0.657	0.552	0.487	0.454	0.421	0.409	0.4
coculture fibroblast: Hs27A	0.855	0.767	0.757	0.713	0.661	0.65	0.615	0.604	0.548
coculture fibroblast: Hs343T	0.928	0.783	0.705	0.67	0.592	0.557	0.523	0.489	0.465
coculture fibroblast: WS1	0.783	0.69	0.665	0.559	0.504	0.485	0.459	0.454	0.442

Source: the supplement of paper PMC6078165
